No constants are given. Whether binding was seen depends on the method and setting. In cells and extracts the contact can be indirect. A yes stands for co-enrichment or nearness to the bait. Other partners may have been found.

The source of these data is paper doi:10.1101/2024.04.23.590789.

The labels stand for the following.
B1: TMEM87b (protein, UniProt Q96K49 43-555)
chain: VPELGLWLETVNDKSGPLIFRKTMFNSTDIKLSVKSFHCSGPVKFTIVWHLKYHTCHNEHSNLEELFQKHKLSVDEDFCHYLKNDNCWTTKNENLDCNSDSQVFPSLNNKELINIRNVSNQERSMDVVARTQKDGFHIFIVSIKTENTDASWNLNVSLSMIGPHGYISASDWPLMIFYMVMCIVYILYGILWLTWSACYWKDILRIQFWIAAVIFLGMLEKAVFYSEYQNISNTGLSTQGLLIFAELISAIKRTLARLLVIIVSLGYGIVKPRLGTVMHRVIGLGLLYLIFAAVEGVMRVIGGSNHLAVVLDDIILAVIDSIFVWFIFISLAQTMKTLRLRKNTVKFSLYRHFKNTLIFAVLASIVFMGWTTKTFRIAKCQSDWMERWVDDAFWSFLFSLILIVIMFLWRPSANNQRYAFMPLIDDSDDEIEEFMVTSENLTEGIKLRASKSVSNGTAKPATSENFDEDLKWVEENIPSSFTDVALPVLVDSDEEIMTRSEMAEKMFSSEKIM
B2: STX12 (protein, UniProt Q86Y82 1-276)
chain: MSYGPLDMYRNPGPSGPQLRDFSSIIQTCSGNIQRISQATAQIKNLMSQLGTKQDSSKLQENLQQLQHSTNQLAKETNELLKELGSLPLPLSTSEQRQQRLQKERLMNDFSAALNNFQAVQRRVSEKEKESIARARAGSRLSAEERQREEQLVSFDSHEEWNQMQSQEDEVAITEQDLELIKERETAIRQLEADILDVNQIFKDLAMMIHDQGDLIDSIEANVESSEVHVERATEQLQRAAYYQKKSRKKMCILVLVLSVIILILGLIIWLVYKTK
B3: TAB1 (protein, UniProt Q15750 1-504)
chain: MAAQRRSLLQSEQQPSWTDDLPLCHLSGVGSASNRSYSADGKGTESHPPEDSWLKFRSENNCFLYGVFNGYDGNRVTNFVAQRLSAELLLGQLNAEHAEADVRRVLLQAFDVVERSFLESIDDALAEKASLQSQLPEGVPQHQLPPQYQKILERLKTLEREISGGAMAVVAVLLNNKLYVANVGTNRALLCKSTVDGLQVTQLNVDHTTENEDELFRLSQLGLDAGKIKQVGIICGQESTRRIGDYKVKYGYTDIDLLSAAKSKPIIAEPEIHGAQPLDGVTGFLVLMSEGLYKALEAAHGPGQANQEIAAMIDTEFAKQTSLDAVAQAVVDRVKRIHSDTFASGGERARFCPRHEDMTLLVRNFGYPLGEMSQPTPSPAPAAGGRVYPVSVPYSSAQSTSKTSVTLSLVMPSQGQMVNGAHSASTLDEATPTLTNQSPTLTLQSTNTHTQSSSSSSDGGLFRSRPAHSLPPGEDGRVEPYVDFAEFYRLWSVDHGEQSVVTAP
B4: ABCG2 (protein, UniProt Q9UNQ0 1-655)
chain: MSSSNVEVFIPVSQGNTNGFPATASNDLKAFTEGAVLSFHNICYRVKLKSGFLPCRKPVEKEILSNINGIMKPGLNAILGPTGGGKSSLLDVLAARKDPSGLSGDVLINGAPRPANFKCNSGYVVQDDVVMGTLTVRENLQFSAALRLATTMTNHEKNERINRVIQELGLDKVADSKVGTQFIRGVSGGERKRTSIGMELITDPSILFLDEPTTGLDSSTANAVLLLLKRMSKQGRTIIFSIHQPRYSIFKLFDSLTLLASGRLMFHGPAQEALGYFESAGYHCEAYNNPADFFLDIINGDSTAVALNREEDFKATEIIEPSKQDKPLIEKLAEIYVNSSFYKETKAELHQLSGGEKKKKITVFKEISYTTSFCHQLRWVSKRSFKNLLGNPQASIAQIIVTVVLGLVIGAIYFGLKNDSTGIQNRAGVLFFLTTNQCFSSVSAVELFVVEKKLFIHEYISGYYRVSSYFLGKLLSDLLPMRMLPSIIFTCIVYFMLGLKPKADAFFVMMFTLMMVAYSASSMALAIAAGQSVVSVATLLMTICFVFMMIFSGLLVNLTTIASWLSWLQYFSIPRYGFTALQHNEFLGQNFCPGLNATGNNPCNYATCTGEEYLVKQGIDLSPWGLWKNHVALACMIVIFLTIAYLKLLFLKKYS

For the assay, the target named is SARS-CoV-2 Envelope (E) protein T9I (Omicron-associated), StrepII-tagged (SARS-CoV-2) (UniProt P0DTC4). Kind of assay: affinity purification with mass spectrometry.
On to SNX12 (from UniProt Q9UMY4 1-162), for which the binding entry is recorded as “binds”.
Regarding B1, the binding result is given as “binds”.
The value for B2 was “binds”; that for B3 was “binds”; that for B4 was “binds”.
